Results reported in PMC7862700.
The other results are listed elsewhere or left out. Construct or isoform of the protein are uncertain.

Each sequence was assayed against T1, ETV4 (UniProt P43268) (assay: DAPPL (digital affinity profiling via proximity ligation, sequencing)). Details: 10 mM Tris-HCl pH 7.5, 50 mM NaCl, 1 mM DTT, 4% glycerol, room temperature, 30 min; GST-TFs on glutathione beads, 16-mer random dsDNA library, 0.1% …; high values mean tight binding; double strand, one strand shown; scale: fold enrichment (6-mer frequency, TF over GST control).
T1 sequence: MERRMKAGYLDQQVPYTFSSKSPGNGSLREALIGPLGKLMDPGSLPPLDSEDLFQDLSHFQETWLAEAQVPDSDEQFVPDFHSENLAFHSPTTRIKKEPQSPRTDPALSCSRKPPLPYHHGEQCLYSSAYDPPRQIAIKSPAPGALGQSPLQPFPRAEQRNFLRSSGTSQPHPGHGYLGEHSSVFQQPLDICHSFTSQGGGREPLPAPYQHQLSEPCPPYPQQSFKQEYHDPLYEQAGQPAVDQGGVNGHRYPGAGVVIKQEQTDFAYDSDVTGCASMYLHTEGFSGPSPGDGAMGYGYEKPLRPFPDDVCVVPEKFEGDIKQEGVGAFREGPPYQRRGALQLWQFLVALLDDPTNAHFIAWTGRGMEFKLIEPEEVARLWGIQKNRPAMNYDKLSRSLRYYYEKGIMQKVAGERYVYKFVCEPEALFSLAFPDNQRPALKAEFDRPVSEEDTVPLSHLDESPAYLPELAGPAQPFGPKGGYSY
For TTCAGC, the binding signal was 1.23.
With ACTTTC the binding signal was 1.52.
Work on TCGTTC yielded a binding signal of 1.28.
TGCTTC gave a binding signal of 2.34.
Work on TCTGGG yielded a binding signal of 1.21.
Sequence GAATTT has a binding signal of 1.22.
Work on TTTTAC yielded a binding signal of 1.35.
In the case of CTGGAC, the binding signal is reported as 1.17.
For ACGCTG, the binding signal was 1.18.
ACTTTG was tested, and the binding signal was 1.22.
In the case of CGTAAT, the binding signal is reported as 1.24.
With TACCCG the binding signal was 1.38.
Work on GTACAT yielded a binding signal of 1.47.
GCTGTA showed a binding signal of 1.07.
TGTCCA showed a binding signal of 1.1.
TACGAT was tested, and the binding signal was 1.05.
TCCTCT was tested, and the binding signal was 1.78.
Sequence GATGGT has a binding signal of 1.2.
Work on TCTCTG yielded a binding signal of 1.61.
ATTCGT was tested, and the binding signal was 1.2.
AATAAG was tested, and the binding signal was 1.21.
With TTGAAT the binding signal was 1.14.
In the case of CTAATT, the binding signal is reported as 1.33.
Work on TTCATC yielded a binding signal of 1.25.
AAGCTC showed a binding signal of 1.16.
With AAAAGA the binding signal was 1.12.
Work on GGGCTT yielded a binding signal of 1.35.
TATTCC was tested, and the binding signal was 1.47.
ACAGAT gave a binding signal of 1.02.
For AATTGG, the binding signal was 1.35.
CTGGAT was tested, and the binding signal was 1.4.
TGACTT gave a binding signal of 1.64.
TGTTAT showed a binding signal of 1.4.
CTACTT gave a binding signal of 2.03.
For CGATTG, the binding signal was 1.19.
GTATTA showed a binding signal of 1.03.
In the case of CATCCC, the binding signal is reported as 1.21.
TGGTGT showed a binding signal of 1.23.
ACATCC showed a binding signal of 3.07.
